Some of the results follow.
Assays:
Experiment in all cases: log2 fold change, soluble protein after heating vs DMSO (PISA); higher = thermal stabilisation; K562 cells, 10 uM, 30 min; active = over 0.2 and 3.5 SD of the protein, either way, in both replicates (recomputed)
[1] = compound: C#Cc1cccc(Nc2ncnc3cc(OCCOC)c(OCCOC)cc23)c1 [erlotinib]
Outline: (§1)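 Soluble protein was defined as the supernatant after 21,000xg for 90 min. It came from K562 cells at 2×10^6 cells/mL given 10 μM compound for 30 min, heated in aliquots for 3 min across 48°C-58°C, pooled, and extracted in PBS with 0.5% NP-40 at 4°C, and was quantified by TMTpro 16plex LC-MS/MS with equalised channel sums. Thermal stability against control samples, from duplicates, is reported as log2 fold change.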

By UniProt entry, the sequences of proteins in these tests, tags left out. Where a name states a change or a piece, a line headed by the entry shows the natural chain unless it says otherwise.
UniProt O15173: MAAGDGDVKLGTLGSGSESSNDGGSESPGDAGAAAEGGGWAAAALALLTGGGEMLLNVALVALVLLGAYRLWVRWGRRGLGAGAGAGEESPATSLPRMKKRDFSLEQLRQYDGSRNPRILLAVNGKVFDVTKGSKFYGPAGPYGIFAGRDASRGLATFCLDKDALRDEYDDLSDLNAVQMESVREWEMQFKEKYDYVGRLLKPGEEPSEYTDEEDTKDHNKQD
UniProt O00264: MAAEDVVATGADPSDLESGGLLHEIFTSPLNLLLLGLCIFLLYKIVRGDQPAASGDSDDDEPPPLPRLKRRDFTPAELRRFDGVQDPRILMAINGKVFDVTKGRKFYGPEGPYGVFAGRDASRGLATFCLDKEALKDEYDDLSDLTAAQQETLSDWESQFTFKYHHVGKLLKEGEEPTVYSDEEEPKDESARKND
UniProt P18669: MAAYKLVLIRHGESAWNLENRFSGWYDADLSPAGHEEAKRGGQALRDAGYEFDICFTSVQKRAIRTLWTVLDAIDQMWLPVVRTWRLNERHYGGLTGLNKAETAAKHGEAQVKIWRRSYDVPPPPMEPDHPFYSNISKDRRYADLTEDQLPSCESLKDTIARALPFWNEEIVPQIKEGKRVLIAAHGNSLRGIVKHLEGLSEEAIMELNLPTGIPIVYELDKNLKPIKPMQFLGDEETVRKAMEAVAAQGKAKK
UniProt Q86UU1: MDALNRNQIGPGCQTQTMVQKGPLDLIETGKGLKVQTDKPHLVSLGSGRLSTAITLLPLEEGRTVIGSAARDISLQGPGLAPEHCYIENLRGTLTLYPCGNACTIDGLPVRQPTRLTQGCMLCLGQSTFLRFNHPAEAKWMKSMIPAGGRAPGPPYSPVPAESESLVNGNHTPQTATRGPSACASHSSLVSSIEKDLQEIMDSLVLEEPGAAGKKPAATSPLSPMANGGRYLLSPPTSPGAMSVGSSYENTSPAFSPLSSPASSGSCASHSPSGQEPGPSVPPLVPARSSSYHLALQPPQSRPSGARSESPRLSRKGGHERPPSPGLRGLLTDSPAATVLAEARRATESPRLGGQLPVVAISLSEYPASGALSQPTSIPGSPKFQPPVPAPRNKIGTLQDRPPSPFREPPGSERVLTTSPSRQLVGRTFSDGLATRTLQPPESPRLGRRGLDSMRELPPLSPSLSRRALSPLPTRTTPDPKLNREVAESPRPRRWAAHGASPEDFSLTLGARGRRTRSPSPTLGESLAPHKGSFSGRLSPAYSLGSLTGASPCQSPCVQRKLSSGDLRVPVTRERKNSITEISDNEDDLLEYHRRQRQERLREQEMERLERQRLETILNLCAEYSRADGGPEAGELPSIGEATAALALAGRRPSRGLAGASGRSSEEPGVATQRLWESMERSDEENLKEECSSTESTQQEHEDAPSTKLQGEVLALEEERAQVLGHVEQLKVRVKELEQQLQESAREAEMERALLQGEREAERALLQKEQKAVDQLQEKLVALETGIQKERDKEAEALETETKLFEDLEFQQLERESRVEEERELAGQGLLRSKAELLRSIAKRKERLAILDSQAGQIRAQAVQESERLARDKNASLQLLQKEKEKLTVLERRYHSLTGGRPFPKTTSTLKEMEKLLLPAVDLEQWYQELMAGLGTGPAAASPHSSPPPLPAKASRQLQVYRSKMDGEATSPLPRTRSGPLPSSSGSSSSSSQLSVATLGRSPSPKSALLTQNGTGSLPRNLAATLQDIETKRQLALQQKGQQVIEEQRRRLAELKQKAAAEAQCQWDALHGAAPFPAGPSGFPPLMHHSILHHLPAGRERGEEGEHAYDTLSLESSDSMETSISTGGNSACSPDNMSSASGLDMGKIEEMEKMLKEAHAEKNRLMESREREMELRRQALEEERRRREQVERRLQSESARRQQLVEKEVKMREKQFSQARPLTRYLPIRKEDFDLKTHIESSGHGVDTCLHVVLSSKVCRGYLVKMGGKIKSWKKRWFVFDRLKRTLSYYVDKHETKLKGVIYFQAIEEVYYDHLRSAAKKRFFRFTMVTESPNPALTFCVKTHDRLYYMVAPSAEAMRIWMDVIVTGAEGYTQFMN
UniProt P48739: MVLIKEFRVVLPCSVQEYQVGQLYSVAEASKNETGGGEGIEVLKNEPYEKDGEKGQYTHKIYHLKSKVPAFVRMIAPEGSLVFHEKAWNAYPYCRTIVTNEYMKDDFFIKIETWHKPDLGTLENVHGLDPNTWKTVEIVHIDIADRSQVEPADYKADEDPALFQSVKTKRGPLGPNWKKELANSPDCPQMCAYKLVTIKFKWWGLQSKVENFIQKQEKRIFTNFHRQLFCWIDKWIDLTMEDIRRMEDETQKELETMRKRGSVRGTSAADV
PIGBOS1, A0A0B4J2F0, UniProt A0A0B4J2F0, whole entry, looked up: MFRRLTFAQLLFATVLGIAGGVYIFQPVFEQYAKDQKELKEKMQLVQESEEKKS
UniProt Q9BUL5: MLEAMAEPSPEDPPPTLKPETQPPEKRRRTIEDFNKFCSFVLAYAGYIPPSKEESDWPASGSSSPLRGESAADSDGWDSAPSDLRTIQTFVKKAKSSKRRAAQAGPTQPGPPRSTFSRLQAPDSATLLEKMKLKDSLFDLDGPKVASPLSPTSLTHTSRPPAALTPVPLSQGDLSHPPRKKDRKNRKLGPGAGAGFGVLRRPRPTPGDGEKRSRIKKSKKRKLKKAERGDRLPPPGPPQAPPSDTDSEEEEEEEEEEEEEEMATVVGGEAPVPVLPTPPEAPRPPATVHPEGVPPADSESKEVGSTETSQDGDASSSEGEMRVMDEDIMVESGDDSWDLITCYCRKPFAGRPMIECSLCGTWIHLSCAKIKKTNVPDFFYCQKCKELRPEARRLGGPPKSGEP
UniProt P12273: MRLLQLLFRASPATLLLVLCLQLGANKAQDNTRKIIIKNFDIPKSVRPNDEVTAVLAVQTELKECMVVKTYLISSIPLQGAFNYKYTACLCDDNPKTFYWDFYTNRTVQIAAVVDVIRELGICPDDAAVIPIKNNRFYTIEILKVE
UniProt P19174: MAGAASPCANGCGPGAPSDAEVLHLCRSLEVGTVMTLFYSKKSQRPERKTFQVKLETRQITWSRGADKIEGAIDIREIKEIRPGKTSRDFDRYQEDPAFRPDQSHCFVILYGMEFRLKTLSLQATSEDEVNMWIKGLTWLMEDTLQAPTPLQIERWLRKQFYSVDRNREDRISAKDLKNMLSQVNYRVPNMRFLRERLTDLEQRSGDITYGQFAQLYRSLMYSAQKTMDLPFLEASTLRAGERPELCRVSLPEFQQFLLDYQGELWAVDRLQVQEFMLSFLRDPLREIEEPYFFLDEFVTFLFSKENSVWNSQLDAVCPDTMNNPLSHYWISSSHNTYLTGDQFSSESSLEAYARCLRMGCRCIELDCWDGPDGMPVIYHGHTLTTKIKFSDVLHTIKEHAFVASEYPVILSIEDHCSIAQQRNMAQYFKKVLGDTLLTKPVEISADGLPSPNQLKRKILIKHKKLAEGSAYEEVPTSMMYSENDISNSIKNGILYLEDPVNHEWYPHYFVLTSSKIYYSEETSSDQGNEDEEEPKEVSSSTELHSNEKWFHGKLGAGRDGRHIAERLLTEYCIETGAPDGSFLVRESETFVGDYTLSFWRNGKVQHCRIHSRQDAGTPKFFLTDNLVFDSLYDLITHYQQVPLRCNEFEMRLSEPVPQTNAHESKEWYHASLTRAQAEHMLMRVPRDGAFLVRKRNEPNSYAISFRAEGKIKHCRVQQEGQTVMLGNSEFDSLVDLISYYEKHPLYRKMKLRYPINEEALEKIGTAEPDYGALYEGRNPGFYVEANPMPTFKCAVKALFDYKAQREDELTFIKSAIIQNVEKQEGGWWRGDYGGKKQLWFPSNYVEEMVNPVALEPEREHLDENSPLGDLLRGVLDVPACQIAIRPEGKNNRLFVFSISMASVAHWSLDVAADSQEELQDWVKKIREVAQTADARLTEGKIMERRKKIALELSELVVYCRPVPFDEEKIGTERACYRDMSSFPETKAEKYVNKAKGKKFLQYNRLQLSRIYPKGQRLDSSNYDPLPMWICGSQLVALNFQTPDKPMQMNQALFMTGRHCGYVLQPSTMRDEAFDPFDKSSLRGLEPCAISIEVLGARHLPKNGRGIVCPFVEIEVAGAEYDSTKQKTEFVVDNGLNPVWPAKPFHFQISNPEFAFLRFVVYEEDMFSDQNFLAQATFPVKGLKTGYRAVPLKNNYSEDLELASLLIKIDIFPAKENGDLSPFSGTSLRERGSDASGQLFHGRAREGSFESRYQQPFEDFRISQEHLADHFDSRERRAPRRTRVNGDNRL
UniProt Q9UBF8: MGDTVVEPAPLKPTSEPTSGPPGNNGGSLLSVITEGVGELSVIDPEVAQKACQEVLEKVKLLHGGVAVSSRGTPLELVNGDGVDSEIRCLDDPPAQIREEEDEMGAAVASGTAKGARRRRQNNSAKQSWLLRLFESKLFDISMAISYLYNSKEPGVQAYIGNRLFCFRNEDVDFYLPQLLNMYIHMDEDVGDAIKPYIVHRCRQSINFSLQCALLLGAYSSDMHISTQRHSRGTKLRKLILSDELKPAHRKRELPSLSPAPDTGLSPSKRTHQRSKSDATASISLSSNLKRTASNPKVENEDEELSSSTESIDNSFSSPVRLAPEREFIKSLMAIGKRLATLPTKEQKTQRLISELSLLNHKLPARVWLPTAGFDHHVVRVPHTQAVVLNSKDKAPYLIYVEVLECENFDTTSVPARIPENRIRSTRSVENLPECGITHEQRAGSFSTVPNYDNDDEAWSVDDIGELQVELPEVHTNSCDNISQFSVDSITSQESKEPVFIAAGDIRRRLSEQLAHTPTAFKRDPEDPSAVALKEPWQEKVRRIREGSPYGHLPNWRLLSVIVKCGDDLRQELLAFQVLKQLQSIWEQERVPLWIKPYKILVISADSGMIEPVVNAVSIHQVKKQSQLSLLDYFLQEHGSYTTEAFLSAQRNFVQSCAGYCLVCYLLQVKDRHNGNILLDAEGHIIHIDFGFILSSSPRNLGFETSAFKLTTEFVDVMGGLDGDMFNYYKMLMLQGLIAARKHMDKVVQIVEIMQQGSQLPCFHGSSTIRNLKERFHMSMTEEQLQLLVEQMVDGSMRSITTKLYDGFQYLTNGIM
UniProt Q9H490: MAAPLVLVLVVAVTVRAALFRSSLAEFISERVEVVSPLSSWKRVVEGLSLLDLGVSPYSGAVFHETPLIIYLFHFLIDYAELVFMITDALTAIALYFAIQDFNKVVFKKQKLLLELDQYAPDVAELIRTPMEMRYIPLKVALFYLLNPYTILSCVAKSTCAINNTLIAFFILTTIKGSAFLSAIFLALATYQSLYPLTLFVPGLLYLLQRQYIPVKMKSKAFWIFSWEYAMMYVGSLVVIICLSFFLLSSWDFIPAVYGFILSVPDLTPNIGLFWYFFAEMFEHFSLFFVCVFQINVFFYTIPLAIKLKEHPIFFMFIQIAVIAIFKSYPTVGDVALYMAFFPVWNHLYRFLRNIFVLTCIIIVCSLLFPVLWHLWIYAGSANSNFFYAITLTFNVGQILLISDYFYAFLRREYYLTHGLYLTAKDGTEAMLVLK
UniProt Q13526, whole entry, looked up: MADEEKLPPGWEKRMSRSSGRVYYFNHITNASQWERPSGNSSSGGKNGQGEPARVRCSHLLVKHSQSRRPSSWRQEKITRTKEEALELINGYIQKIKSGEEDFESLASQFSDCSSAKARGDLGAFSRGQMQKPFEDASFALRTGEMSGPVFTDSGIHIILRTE
UniProt P35232: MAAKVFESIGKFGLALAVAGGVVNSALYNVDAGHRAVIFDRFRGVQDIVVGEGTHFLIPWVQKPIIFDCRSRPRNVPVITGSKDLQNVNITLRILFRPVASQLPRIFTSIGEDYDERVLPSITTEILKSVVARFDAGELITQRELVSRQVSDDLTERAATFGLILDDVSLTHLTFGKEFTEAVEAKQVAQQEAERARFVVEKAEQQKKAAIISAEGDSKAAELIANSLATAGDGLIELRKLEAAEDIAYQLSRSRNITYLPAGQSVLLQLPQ
UniProt Q9GZP4: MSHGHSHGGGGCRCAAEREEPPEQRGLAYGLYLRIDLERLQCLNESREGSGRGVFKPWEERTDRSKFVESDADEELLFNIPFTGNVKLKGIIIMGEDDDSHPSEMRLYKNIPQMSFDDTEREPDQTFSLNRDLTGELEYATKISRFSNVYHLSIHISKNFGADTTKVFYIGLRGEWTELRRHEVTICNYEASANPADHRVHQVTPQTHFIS
UniProt Q92643: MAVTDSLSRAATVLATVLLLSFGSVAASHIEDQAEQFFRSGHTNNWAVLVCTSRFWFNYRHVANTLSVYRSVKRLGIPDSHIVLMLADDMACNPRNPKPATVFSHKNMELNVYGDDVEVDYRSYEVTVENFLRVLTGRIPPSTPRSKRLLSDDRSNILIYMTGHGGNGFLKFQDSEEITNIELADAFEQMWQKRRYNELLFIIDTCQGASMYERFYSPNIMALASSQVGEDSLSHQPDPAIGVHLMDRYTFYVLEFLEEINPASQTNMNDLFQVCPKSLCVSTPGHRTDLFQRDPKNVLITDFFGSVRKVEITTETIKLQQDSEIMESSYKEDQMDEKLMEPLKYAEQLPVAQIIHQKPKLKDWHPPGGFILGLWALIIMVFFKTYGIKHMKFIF

[2] = compound: C/C(=N\NC(=O)C1=CC(=CC=C1)S(=O)(=O)N2CCOCC2)/C3=C(C=CC(=C3)Cl)O
Outline: as §1

[3] = compound: C1=CC(=C(C=C1Cl)C2=NC3=NC=CN=C3C(=N2)NC4=CC=NC=C4)F
Outline: as §1

[4] = compound: C1=CC(=CC=C1C2=NC3=C(N2)C=C(C=C3)C(=O)N)OC4=CC=C(C=C4)Cl
Outline: as §1

[5] = compound: C1=CC2=C(C=CC(=C2)/C=C\3/C(=O)NC(=NCC4=CC=CS4)S3)N=C1
Outline: as §1

[6] = compound: C1=CC2=NC=CN=C2C=C1/C=C/3\C(=O)NC(=O)S3
Outline: as §1

[7] = compound: C1=CC=C(C=C1)C2=NC(=C(N2)C3=CC=NC=C3)C4=CC(=C(C=C4)Cl)O
Outline: as §1

[8] = compound: C1=CC=C2C(=C1)C3=NNC4=CC=CC(=C43)C2=O
Outline: as §1

[9] = compound: C1CCN(C1)C(=O)NC2=CC=CC(=C2)NC3=NC=C(C(=N3)NCCC4=CN=CN4)Br
Outline: as §1

[10] = compound: C1CN(CCC1(CC2=CC=C(C=C2)Cl)N)C3=NC=NC4=C3C=CN4
Outline: as §1

Measured: log2 fold change

PGRMC2 isoform 2 (UniProt O15173)
inactive: [1] 0.017 | [2] 0.006 | [3] 0.048 | [4] -0.018 | [5] -0.041 | [6] 0.008 | [7] 0.021 | [8] -0.015 | [9] -0.002 | [10] 0.03

PGAM4 (UniProt Q8N0Y7)
inactive: [1] 0.034 | [2] -0.01 | [3] 0.034 | [4] 0.002 | [5] -0.04 | [6] 0.044 | [7] -0.015 | [8] -0.014 | [9] 0.022 | [10] 0.09

PGRMC1 (UniProt O00264)
inactive: [1] 0.012 | [2] -0.001 | [3] 0.033 | [4] -0.014 | [5] -0.029 | [6] 0.017 | [7] 0.072 | [8] -0.026 | [9] 0.034 | [10] 0.03

PGAM1 (UniProt P18669)
inactive: [1] -0.03 | [2] 0.003 | [3] 0.069 | [4] -0.003 | [5] -0.044 | [6] -0.009 | [7] -0.051 | [8] 0.03 | [9] -0.013 | [10] 0.053

PIH1D1 (UniProt Q9NWS0)
inactive: [1] -0.009 | [2] 0.054 | [3] -0.064 | [4] 0.003 | [5] 0.01 | [6] 0.06 | [7] -0.037 | [8] 0.012 | [9] -0.042 | [10] -0.063

PFN1 (UniProt I3L3D5)
inactive: [1] 0.09 | [2] -0.091 | [3] -0.207 | [4] 0.129 | [5] 0.344 | [6] -0.172 | [7] -0.124 | [8] -0.198 | [9] 0.21 | [10] 0.045

PLBD2 (UniProt Q8NHP8)
inactive: [1] -0.022 | [2] -0.048 | [3] 0.026 | [4] 0.01 | [5] 0.009 | [6] 0.037 | [7] 0.01 | [8] -0.02 | [9] -0.018 | [10] 0.018

PIK3CD (UniProt O00329)
inactive: [1] -0.044 | [2] -0.224 | [3] 0.095 | [4] 0.181 | [5] 0.114 | [6] 0.241 | [7] -0.052 | [8] -0.063 | [9] -0.077 | [10] -0.013

PHKA1 (UniProt P46020)
inactive: [1] -0.028 | [2] -0.101 | [3] -0.051 | [4] 0.003 | [5] 0.057 | [6] 0.024 | [7] 0.152 | [8] -0.095 | [9] -0.105 | [10] -0.026

PFKFB4 (UniProt Q16877)
inactive: [1] -0.003 | [2] 0.028 | [3] -0.023 | [4] -0.002 | [5] -0.029 | [6] 0.044 | [7] -0.027 | [8] -0.023 | [9] 0.028 | [10] 0.034

PHLDB1 isoform 2 (UniProt Q86UU1)
inactive: [1] -0.02 | [2] 0.03 | [3] 0.099 | [4] 0.027 | [5] 0.165 | [6] -0.093 | [7] 0.008 | [8] -0.125 | [9] -0.048 | [10] 0.025

PITRM1 isoform 2 (UniProt Q5JRX3)
inactive: [1] -0.004 | [2] -0.008 | [3] 0.012 | [4] 0.005 | [5] 0.118 | [6] 0.007 | [7] 0.041 | [8] 0.03 | [9] 0.023 | [10] 0.153

PITPNB isoform 3 (UniProt P48739)
inactive: [1] -0.004 | [2] 0.042 | [3] 0.019 | [4] 0.014 | [5] 0.027 | [6] 0.017 | [7] 0.036 | [8] -0.008 | [9] 0.009 | [10] 0.01

PFKFB2 (UniProt O60825)
inactive: [1] 0.017 | [2] 0.001 | [3] 0.101 | [4] 0.009 | [5] 0.019 | [6] -0.064 | [7] 0.023 | [8] -0.043 | [9] 0.013 | [10] 0.054

PLBD1 (UniProt Q6P4A8)
inactive: [1] 0.05 | [2] -0.008 | [3] 0.024 | [4] 0.037 | [5] 0.09 | [6] 0.024 | [7] 0.036 | [8] -0.01 | [9] 0.037 | [10] 0.009

PIGBOS1, A0A0B4J2F0
inactive: [1] 0.017 | [2] -0.095 | [3] 0.287 | [4] 0.038 | [5] 0.072 | [6] 0.055 | [7] -0.082 | [8] 0.063 | [9] -0.018 | [10] -0.062

PHKA2 (UniProt P46019)
inactive: [1] -0.077 | [2] 0.029 | [3] 0.041 | [4] -0.008 | [5] -0.011 | [6] 0.041 | [7] -0.028 | [8] -0.026 | [9] 0.004 | [10] 0.004

PHF23 (UniProt Q9BUL5)
inactive: [1] 0.006 | [2] 0.038 | [3] -0.013 | [4] 0.003 | [5] 0.014 | [6] 0.02 | [7] -0.079 | [8] -0.009 | [9] 0.071 | [10] 0.011

PIP (UniProt P12273)
inactive: [1] 0.179 | [2] -0.109 | [3] -0.26 | [4] -0.374 | [5] 0.139 | [6] -0.351 | [7] 0.224 | [8] -0.733 | [9] -0.325 | [10] -0.513

PHF3 (UniProt Q92576)
inactive: [1] -0.072 | [2] -0.114 | [3] -0.24 | [4] 0.014 | [5] -0.172 | [6] 0 | [7] -0.048 | [8] -0.088 | [9] -0.097 | [10] -0.107

Taken from the listing (eight entries):
PFKFB4 (UniProt Q16877)
inactive: [1] -0.003 | [2] 0.028 | [3] -0.023 | [4] -0.002 | [5] -0.029 | [6] 0.044 | [7] -0.027 | [8] -0.023 | [9] 0.028 | [10] 0.034

PHLDB1 isoform 2 (UniProt Q86UU1)
inactive: [1] -0.02 | [2] 0.03 | [3] 0.099 | [4] 0.027 | [5] 0.165 | [6] -0.093 | [7] 0.008 | [8] -0.125 | [9] -0.048 | [10] 0.025

PITRM1 isoform 2 (UniProt Q5JRX3)
inactive: [1] -0.004 | [2] -0.008 | [3] 0.012 | [4] 0.005 | [5] 0.118 | [6] 0.007 | [7] 0.041 | [8] 0.03 | [9] 0.023 | [10] 0.153

PITPNB isoform 3 (UniProt P48739)
inactive: [1] -0.004 | [2] 0.042 | [3] 0.019 | [4] 0.014 | [5] 0.027 | [6] 0.017 | [7] 0.036 | [8] -0.008 | [9] 0.009 | [10] 0.01

PFKFB2 (UniProt O60825)
inactive: [1] 0.017 | [2] 0.001 | [3] 0.101 | [4] 0.009 | [5] 0.019 | [6] -0.064 | [7] 0.023 | [8] -0.043 | [9] 0.013 | [10] 0.054

PLBD1 (UniProt Q6P4A8)
inactive: [1] 0.05 | [2] -0.008 | [3] 0.024 | [4] 0.037 | [5] 0.09 | [6] 0.024 | [7] 0.036 | [8] -0.01 | [9] 0.037 | [10] 0.009

PIGBOS1, A0A0B4J2F0
inactive: [1] 0.017 | [2] -0.095 | [3] 0.287 | [4] 0.038 | [5] 0.072 | [6] 0.055 | [7] -0.082 | [8] 0.063 | [9] -0.018 | [10] -0.062

PHKA2 (UniProt P46019)
inactive: [1] -0.077 | [2] 0.029 | [3] 0.041 | [4] -0.008 | [5] -0.011 | [6] 0.041 | [7] -0.028 | [8] -0.026 | [9] 0.004 | [10] 0.004

(next part)

PHF6 (UniProt Q8IWS0)
inactive: [1] -0.141 | [2] -0.112 | [3] -0.43 | [4] 0.07 | [5] -0.099 | [6] 0.012 | [7] -0.017 | [8] 0.034 | [9] -0.051 | [10] -0.092

PHPT1 (UniProt Q9NRX4)
inactive: [1] 0.033 | [2] 0.026 | [3] 0.061 | [4] 0.032 | [5] 0.031 | [6] 0.018 | [7] -0.02 | [8] -0.014 | [9] -0.004 | [10] -0.053

PLCG1 isoform 2 (UniProt P19174)
inactive: [1] 0.052 | [2] -0.054 | [3] -0.09 | [4] 0.067 | [5] 0.119 | [6] 0.029 | [7] 0.006 | [8] 0.017 | [9] 0.052 | [10] -0.06

PI4KB (UniProt Q9UBF8)
inactive: [1] 0.02 | [2] 0.009 | [3] 0.07 | [4] 0.025 | [5] -0.013 | [6] 0.035 | [7] 0.003 | [8] 0.054 | [9] 0.011 | [10] -0.016

PIGU (UniProt Q9H490)
inactive: [1] 0.018 | [2] 0.035 | [3] -0.059 | [4] -0.006 | [5] -0.133 | [6] 0.102 | [7] 0.043 | [8] 0.066 | [9] -0.11 | [10] -0.004

PIN1 (UniProt Q13526)
inactive: [1] -0.015 | [2] 0.097 | [3] 0.003 | [4] -0.002 | [5] -0.008 | [6] 0.016 | [7] 0.049 | [8] -0.001 | [9] -0.062 | [10] -0.017

PHACTR2 isoform 4 (UniProt O75167)
inactive: [1] 0.03 | [2] -0.07 | [3] -0.019 | [4] 0.016 | [5] 0.15 | [6] -0.014 | [7] -0.094 | [8] -0.051 | [9] -0.008 | [10] 0.085

PHB (UniProt P35232)
inactive: [1] -0.01 | [2] 0.007 | [3] 0.093 | [4] -0.016 | [5] 0.007 | [6] 0.015 | [7] 0.002 | [8] -0.007 | [9] 0.009 | [10] -0.002

PITHD1 (UniProt Q9GZP4)
inactive: [1] 0.006 | [2] -0.04 | [3] -0.033 | [4] 0.048 | [5] 0.025 | [6] -0.079 | [7] -0.035 | [8] -0.003 | [9] 0.072 | [10] 0.059

PIGK (UniProt Q92643)
inactive: [1] 0.046 | [2] -0.063 | [3] -0.019 | [4] -0.013 | [5] 0.019 | [6] 0.034 | [7] -0.01 | [8] -0.033 | [9] -0.045 | [10] 0.034

Reference: the supplement of paper PMC10849652
